This is an account of results in the supplement of paper PMC4604168 (melanoma cell lines).

This is one part of the list. Many values rest on one well or one pass, so single values are uncertain.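 Cells were imaged in 1,536-well plates, and nuclei stained with an antibody against cleaved PARP were counted against all DNA-stained nuclei to give the apoptosis fraction. Screening doses were chosen to leave most cells alive, and resting and induced cleaved-PARP levels differ strongly between cell lines.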

This test concerns COLO800. As to the kind of experiment: cleaved PARP positive nuclei fraction relative to DMSO control; melanoma cells; higher = more apoptosis. As to conditions: library dose: low library concentration; 72 h.
`CCN(CC)CCNC(=O)c1c(C)[nH]c(/C=C2\C(=O)Nc3ccc(F)cc32)c1C` [sunitinib] + N#Cc1c(O)c2c(-c3ccc(-c4ccccc4O)cc3)csc2[nH]c1=O [A769662] (first compound 0.4 µM, partner dose 2 µM): the “cleaved PARP positive nuclei fraction” value was 90.7%.
Consider `CS(=O)(=O)c1ccc(C(=O)Nc2ccc(Cl)c(-c3ccccn3)c2)c(Cl)c1` [vismodegib] + Cn1cc(/C=C2\C(=O)Nc3cccnc32)c2ccccc21 [GW441756] (first compound 1 µM, partner dose 0.4 µM), for which the “cleaved PARP positive nuclei fraction” value was 33.5%.
The figure for `COc1ccc(C2=N[C@@H](c3ccc(Cl)cc3)[C@@H](c3ccc(Cl)cc3)N2C(=O)N2CCNC(=O)C2)c(OC(C)C)c1` [Nutlin-3] + Cn1cc(/C=C2\C(=O)Nc3cccnc32)c2ccccc21 [GW441756] (first compound 0.1 µM, partner dose 0.4 µM) is 55.1%; for `COc1ccc(C2=N[C@@H](c3ccc(Cl)cc3)[C@@H](c3ccc(Cl)cc3)N2C(=O)N2CCNC(=O)C2)c(OC(C)C)c1` [Nutlin-3] + COc1ccc(COc2ccc(Cc3cnc(N)nc3N)cc2OC)cc1 [GW2580] (first compound 0.1 µM, partner dose 1 µM) it is 70.8%; for `C[C@@H](N)c1ccc(C(=O)Nc2ccnc3[nH]ccc23)cc1` + O=C1NC(=O)/C(=C/c2ccc(-c3ccc(F)cc3O)o2)S1 [AS252424] (first compound 0.4 µM, partner dose 1 µM) it is 190%.
The figure for `C[C@]1(O)C[C@@H](c2nc(-c3ccc4ccc(-c5ccccc5)nc4c3)c3c(N)nccn32)C1` + Oc1cc(-c2nc(-c3ccccc3)[nH]c2-c2ccncc2)ccc1Cl [L779450] (first compound 0.4 µM, partner dose 0.2 µM) is 75.4%; for `CCCCCCCCc1ccc(CCC(N)(CO)CO)cc1` [fingolimod] + COC(=O)c1sccc1S(=O)(=O)Nc1ccc(Nc2ccccc2)cc1OC [GSK0660] (first compound 2 µM, partner dose 1 µM) it is 90.3%.
Regarding `CCN(CC)CCNC(=O)c1c(C)[nH]c(/C=C2\C(=O)Nc3ccc(F)cc32)c1C` [sunitinib] + O=C1NC(=O)/C(=C/c2ccc(-c3ccc(F)cc3O)o2)S1 [AS252424] (first compound 0.4 µM, partner dose 1 µM), the “cleaved PARP positive nuclei fraction” value came out at 61.3%.
The figure for `NC1(c2ccc(-c3nc4ccn5c(=O)[nH]nc5c4cc3-c3ccccc3)cc2)CCC1` + CC(C)CCN1c2nc(Nc3cc(F)c(O)c(F)c3)ncc2N(C)C(=O)C1C [BID1870] (first compound 0.4 µM, partner dose 0.2 µM) is 139%; for `CC(=O)O[C@@]12CO[C@@H]1C[C@H](O)[C@@]1(C)C(=O)[C@H](O)C3=C(C)[C@@H](OC(=O)[C@H](O)[C@@H](NC(=O)OC(C)(C)C)c4ccccc4)C[C@@](O)([C@@H](OC(=O)c4ccccc4)[C@H]21)C3(C)C` [Docetaxel] + CCCCCCCCCCCC1=C(O)C(=O)C=C(O)C1=O [Embelin] (first compound 0.0001 µM, partner dose 1.2 µM) it is 594%.
The figure for `Cn1cnc2c(F)c(Nc3ccc(Br)cc3Cl)c(C(=O)NOCCO)cc21` [selumetinib] + COc1ccc(COc2ccc(Cc3cnc(N)nc3N)cc2OC)cc1 [GW2580] (first compound 0.015 µM, partner dose 1 µM) is 79.4%; for `C[C@]1(O)C[C@@H](c2nc(-c3ccc4ccc(-c5ccccc5)nc4c3)c3c(N)nccn32)C1` + O=C(O)C(=O)Nc1sc2c(c1C(=O)O)CCNC2 [TCS401] (first compound 0.4 µM, partner dose 1.66667 µM) it is 186%; for `CCN(CC)CCNC(=O)c1c(C)[nH]c(/C=C2\C(=O)Nc3ccc(F)cc32)c1C` [sunitinib] + c1cc(-c2cnn3cc(-c4ccc(OCCN5CCCCC5)cc4)cnc23)ccn1 [Dorsomorphin] (first compound 0.4 µM, partner dose 0.4 µM) it is 117%.
The figure for `CC1(C)CCC(c2ccc(Cl)cc2)=C(CN2CCN(c3ccc(C(=O)NS(=O)(=O)c4ccc(N[C@H](CCN5CCOCC5)CSc5ccccc5)c(S(=O)(=O)C(F)(F)F)c4)cc3)CC2)C1` + COc1cc(N2CCC(N3CCN(C)CC3)CC2)ccc1Nc1ncc(Cl)c(Nc2ccccc2S(=O)(=O)C(C)C)n1 [NVP-TAE684] (first compound 0.4 µM, partner dose 0.08 µM) is 139%.
